The list shows a part of the results.
Compound: CC1=C(C=C(C=C1)NC(=O)C2=CC(=CC=C2)C(C)(C)C#N)NC3=CC4=C(C=C3)N=CN(C4=O)C
Assay: log2 fold change, soluble protein after heating vs DMSO (PISA); higher = thermal stabilisation; K562 lysate, 10 uM; active = over 0.2 and 3.5 SD of the protein, either way, in both replicates (recomputed)
Method in brief: (§1)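 The values are log-two fold changes in thermal stability compared with solvent controls and come from duplicates. They were obtained by TMTpro 16plex LC-MS/MS, with channel sums equalised, on the supernatant after 21,000xg for 90 min. That supernatant came from crude K562 extract at 1 mg/mL protein treated with 10 μM compound for 30 min, heated for 3 min across 48°C-58°C, pooled and brought to 0.5% NP-40 at 4°C.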

By UniProt entry, the sequences of proteins in these tests, tags left out. Where a name states a change or a piece, a line headed by the entry shows the natural chain unless it says otherwise.
UniProt Q4VC05, whole entry, looked up: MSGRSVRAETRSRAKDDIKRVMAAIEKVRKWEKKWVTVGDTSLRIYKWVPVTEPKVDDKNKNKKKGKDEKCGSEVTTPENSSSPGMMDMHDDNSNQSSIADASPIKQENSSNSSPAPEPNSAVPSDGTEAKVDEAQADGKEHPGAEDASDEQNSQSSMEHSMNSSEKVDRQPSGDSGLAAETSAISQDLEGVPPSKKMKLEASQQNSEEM
UniProt O14503, whole entry, looked up: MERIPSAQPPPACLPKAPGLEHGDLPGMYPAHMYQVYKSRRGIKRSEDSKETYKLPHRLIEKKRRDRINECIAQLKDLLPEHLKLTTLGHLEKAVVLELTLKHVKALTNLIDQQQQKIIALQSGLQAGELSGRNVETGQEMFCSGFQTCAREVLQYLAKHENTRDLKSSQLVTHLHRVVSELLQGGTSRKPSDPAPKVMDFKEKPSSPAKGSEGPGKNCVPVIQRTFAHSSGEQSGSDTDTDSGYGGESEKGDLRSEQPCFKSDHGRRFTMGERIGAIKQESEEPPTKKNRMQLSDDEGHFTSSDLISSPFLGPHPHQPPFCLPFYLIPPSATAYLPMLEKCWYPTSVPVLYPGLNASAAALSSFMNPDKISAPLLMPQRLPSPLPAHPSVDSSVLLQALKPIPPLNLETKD
UniProt Q76KP1: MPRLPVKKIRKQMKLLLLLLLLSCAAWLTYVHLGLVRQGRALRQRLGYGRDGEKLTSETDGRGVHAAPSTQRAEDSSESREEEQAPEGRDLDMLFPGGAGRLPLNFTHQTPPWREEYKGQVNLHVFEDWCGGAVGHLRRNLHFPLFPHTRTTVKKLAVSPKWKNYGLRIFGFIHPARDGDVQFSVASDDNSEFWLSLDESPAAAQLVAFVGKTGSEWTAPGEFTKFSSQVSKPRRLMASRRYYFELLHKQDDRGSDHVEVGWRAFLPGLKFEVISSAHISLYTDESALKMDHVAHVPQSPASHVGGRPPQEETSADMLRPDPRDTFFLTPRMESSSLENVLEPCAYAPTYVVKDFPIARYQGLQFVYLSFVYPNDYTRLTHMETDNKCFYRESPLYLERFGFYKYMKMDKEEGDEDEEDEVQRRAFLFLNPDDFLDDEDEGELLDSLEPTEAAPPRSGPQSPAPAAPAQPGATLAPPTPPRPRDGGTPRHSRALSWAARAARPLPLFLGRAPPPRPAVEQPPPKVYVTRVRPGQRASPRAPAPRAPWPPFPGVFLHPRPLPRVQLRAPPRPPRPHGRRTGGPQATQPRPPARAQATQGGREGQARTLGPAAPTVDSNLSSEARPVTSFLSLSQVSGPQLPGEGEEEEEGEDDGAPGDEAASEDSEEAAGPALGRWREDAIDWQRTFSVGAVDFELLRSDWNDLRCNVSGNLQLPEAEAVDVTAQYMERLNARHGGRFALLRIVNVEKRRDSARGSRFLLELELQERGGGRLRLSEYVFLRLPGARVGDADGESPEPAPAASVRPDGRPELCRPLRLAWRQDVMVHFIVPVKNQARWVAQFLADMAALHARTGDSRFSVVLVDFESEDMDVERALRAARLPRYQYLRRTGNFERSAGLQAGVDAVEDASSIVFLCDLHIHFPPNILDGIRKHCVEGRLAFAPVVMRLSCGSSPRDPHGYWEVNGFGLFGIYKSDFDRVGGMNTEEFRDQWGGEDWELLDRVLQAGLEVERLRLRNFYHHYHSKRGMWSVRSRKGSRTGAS
UniProt O43521, whole entry, looked up: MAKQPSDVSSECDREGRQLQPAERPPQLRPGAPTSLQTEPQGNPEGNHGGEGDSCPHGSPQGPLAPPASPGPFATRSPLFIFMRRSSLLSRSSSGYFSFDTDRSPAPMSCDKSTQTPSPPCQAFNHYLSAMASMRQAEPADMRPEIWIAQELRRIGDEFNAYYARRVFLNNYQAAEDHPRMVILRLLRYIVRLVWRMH
UniProt Q9NWD9: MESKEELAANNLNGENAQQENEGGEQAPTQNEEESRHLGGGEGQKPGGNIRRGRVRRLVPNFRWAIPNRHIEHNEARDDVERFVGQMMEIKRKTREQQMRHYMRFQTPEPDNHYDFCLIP
UniProt Q96IK1: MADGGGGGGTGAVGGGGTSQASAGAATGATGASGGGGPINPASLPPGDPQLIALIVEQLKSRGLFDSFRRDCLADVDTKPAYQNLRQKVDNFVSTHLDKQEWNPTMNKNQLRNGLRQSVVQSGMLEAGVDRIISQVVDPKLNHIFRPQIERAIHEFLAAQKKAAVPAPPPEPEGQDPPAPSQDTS
UniProt Q9NSI6, whole entry, looked up: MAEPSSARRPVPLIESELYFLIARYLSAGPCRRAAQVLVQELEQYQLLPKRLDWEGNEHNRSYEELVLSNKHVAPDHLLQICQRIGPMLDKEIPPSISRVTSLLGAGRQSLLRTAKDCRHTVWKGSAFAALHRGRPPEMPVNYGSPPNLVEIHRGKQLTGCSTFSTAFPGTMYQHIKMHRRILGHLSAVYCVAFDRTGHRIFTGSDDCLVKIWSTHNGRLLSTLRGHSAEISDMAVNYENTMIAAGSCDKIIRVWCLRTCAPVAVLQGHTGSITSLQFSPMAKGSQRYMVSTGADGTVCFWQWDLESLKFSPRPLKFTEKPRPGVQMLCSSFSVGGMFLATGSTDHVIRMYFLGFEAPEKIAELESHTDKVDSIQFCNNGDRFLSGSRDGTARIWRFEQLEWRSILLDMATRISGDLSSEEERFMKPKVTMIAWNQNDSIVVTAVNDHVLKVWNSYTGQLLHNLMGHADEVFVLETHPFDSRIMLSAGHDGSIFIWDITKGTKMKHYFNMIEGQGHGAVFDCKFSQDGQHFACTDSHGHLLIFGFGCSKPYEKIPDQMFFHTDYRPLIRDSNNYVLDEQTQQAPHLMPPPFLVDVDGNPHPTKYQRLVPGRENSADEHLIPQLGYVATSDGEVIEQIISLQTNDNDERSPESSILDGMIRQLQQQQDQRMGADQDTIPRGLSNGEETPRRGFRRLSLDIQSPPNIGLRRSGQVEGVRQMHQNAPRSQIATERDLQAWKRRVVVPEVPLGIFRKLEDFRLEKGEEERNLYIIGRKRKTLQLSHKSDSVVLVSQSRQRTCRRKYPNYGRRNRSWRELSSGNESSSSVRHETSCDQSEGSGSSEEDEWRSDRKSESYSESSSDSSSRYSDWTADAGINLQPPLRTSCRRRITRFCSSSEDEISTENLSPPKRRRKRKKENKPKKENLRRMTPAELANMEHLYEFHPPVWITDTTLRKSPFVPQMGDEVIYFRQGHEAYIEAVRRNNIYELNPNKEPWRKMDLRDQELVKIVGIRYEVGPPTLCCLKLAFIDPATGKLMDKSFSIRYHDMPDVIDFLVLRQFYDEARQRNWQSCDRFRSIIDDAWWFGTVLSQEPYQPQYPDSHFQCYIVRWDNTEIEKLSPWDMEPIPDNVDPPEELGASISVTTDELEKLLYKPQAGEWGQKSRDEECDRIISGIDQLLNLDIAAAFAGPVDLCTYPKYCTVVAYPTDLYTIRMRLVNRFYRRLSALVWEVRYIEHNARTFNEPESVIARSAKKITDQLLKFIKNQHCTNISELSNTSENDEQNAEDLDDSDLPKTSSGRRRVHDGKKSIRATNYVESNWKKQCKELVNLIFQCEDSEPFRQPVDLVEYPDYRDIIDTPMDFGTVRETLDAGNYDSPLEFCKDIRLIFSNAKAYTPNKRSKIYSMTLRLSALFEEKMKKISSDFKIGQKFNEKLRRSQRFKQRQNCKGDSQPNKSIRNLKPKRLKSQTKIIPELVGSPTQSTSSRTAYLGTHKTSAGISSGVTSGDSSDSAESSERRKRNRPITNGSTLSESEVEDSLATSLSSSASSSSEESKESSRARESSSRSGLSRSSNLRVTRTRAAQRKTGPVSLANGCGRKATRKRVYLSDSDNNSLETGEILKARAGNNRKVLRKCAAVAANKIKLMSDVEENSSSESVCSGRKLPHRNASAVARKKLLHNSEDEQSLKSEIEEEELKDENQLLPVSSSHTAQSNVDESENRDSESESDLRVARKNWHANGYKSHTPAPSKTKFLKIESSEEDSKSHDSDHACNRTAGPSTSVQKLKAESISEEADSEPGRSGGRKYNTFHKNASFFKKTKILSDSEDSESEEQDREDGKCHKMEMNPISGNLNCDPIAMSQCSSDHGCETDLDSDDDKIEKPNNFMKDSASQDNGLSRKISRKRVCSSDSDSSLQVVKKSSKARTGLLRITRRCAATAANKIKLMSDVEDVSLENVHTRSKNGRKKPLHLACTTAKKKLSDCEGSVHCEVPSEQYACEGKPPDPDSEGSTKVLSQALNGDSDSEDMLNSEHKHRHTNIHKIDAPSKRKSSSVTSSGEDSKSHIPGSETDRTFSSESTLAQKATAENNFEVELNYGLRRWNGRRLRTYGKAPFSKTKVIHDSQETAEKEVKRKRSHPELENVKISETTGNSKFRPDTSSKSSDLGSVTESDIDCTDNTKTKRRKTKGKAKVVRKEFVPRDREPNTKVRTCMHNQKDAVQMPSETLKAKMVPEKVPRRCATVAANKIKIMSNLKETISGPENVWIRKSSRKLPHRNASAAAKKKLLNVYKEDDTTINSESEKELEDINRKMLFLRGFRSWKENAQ
UniProt O75363: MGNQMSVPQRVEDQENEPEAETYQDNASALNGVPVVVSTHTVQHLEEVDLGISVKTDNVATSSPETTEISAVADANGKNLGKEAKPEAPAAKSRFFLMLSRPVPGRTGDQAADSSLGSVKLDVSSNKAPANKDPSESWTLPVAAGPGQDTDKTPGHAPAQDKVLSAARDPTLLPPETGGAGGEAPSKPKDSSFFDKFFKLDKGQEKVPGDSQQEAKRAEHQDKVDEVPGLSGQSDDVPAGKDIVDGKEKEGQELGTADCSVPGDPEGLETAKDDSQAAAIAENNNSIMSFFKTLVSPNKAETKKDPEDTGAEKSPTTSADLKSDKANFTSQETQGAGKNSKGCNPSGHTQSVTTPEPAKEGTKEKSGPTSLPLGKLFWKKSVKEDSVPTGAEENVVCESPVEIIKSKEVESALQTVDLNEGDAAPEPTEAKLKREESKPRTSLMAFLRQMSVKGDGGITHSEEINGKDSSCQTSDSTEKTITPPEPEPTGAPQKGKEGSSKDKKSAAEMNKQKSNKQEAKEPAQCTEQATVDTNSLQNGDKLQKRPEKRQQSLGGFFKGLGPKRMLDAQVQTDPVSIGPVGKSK
UniProt P13497: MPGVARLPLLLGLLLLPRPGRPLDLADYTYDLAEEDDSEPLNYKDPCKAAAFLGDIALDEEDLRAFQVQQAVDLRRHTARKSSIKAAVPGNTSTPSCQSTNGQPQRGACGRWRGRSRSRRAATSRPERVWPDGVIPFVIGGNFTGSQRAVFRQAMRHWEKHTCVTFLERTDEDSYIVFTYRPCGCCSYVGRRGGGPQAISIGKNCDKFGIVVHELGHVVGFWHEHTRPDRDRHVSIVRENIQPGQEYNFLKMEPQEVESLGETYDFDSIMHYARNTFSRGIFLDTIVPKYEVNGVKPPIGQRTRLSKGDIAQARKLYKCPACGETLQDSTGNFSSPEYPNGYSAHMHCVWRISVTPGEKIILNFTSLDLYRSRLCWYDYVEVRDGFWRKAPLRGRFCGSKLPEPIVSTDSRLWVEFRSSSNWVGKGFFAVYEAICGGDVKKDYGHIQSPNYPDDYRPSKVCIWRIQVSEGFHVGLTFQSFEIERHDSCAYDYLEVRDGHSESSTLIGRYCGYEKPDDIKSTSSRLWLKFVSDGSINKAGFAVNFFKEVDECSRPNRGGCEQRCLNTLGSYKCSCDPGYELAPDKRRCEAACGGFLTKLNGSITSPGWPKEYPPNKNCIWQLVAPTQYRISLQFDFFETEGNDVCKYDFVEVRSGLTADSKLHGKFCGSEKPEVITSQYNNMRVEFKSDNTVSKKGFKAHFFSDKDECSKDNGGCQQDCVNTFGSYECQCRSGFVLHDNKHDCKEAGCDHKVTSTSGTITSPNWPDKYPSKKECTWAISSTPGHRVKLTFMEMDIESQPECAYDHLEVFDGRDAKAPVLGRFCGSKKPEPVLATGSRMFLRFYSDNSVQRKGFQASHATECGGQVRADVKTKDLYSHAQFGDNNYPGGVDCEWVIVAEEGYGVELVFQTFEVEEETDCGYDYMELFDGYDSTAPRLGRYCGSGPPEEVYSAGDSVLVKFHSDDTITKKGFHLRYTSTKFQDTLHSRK
UniProt Q5PSV4: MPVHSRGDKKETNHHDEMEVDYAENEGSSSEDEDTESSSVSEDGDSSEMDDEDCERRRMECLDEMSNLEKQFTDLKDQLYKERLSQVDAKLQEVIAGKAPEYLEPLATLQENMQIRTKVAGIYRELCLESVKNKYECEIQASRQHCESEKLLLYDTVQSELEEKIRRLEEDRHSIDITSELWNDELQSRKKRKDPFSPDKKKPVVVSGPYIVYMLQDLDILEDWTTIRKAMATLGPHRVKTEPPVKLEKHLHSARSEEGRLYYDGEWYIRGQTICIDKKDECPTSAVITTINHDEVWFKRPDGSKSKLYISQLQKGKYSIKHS
UniProt Q9BXY8: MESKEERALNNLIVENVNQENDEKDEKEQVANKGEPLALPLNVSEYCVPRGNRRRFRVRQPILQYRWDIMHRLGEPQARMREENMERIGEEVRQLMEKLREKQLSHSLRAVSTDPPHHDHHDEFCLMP

Target	log2 fold change
BTG1 (UniProt P62324)	inactive: -0.119
BCL7A (UniProt Q4VC05)	inactive: 0.084
BHLHE40 (UniProt O14503)	inactive: -0.097
BTBD10 isoform 2 (UniProt Q9BSF8)	inactive: 0.043
BBX (UniProt Q8WY36)	inactive: 0.094
BDP1 (UniProt A6H8Y1)	inactive: 0.008
BAIAP2 isoform 6 (UniProt Q9UQB8)	inactive: -0.02
B4GALNT4 (UniProt Q76KP1)	inactive: -0.125
BNIP3L (UniProt O60238)	inactive: -0.01
BCL2L11 (UniProt O43521)	inactive: 0.167
BEX4 (UniProt Q9NWD9)	inactive: 0.068
BOD1 (UniProt Q96IK1)	inactive: -0.002
BAHD1 (UniProt Q8TBE0)	inactive: -0.151
BTBD2 (UniProt Q9BX70)	inactive: -0.077
BRWD1 (UniProt Q9NSI6)	inactive: -0.397
BCAS1 isoform 2 (UniProt O75363)	inactive: 0.09

Compound: CC1=C(C=C(C=C1)NC(=O)C2=CC(=CC=C2)N(C)C)NC(=O)C3=CC=C(C=C3)O
Assay: as above
Method in brief: as §1

Target	log2 fold change
BCL7A (UniProt Q4VC05)	inactive: 0.075
BHLHE40 (UniProt O14503)	inactive: 0.006
BMP1 (UniProt P13497)	inactive: -0.322
BDP1 (UniProt A6H8Y1)	inactive: -0.14
BICRAL (UniProt Q6AI39)	inactive: 0.089
BEX4 (UniProt Q9NWD9)	inactive: 0.043
BOD1 (UniProt Q96IK1)	inactive: -0.002
BAHD1 (UniProt Q8TBE0)	inactive: -0.01
BPTF (UniProt F5GXF5)	inactive: -0.016
BCL2 (UniProt P10415)	inactive: -0.275
BRWD1 (UniProt Q9NSI6)	inactive: -0.08
BCAS1 isoform 2 (UniProt O75363)	inactive: -0.04

Compound: CC1=CC=C(C=C1)SC2=C3C=C(SC3=CN=C2)C(=O)N
Assay: as above
Method in brief: as §1

Target	log2 fold change
BCL7A (UniProt Q4VC05)	inactive: 0.085
BTBD9 (UniProt Q96Q07)	inactive: 0.226
BRMS1L (UniProt Q5PSV4)	inactive: 0.012
BNIP2 (UniProt H7C096)	inactive: -0.024
BLVRA (UniProt C9J1E1)	inactive: 0.057
BEX2 isoform 2 (UniProt Q9BXY8)	inactive: -0.112
BOD1 (UniProt Q96IK1)	inactive: 0.043
BCAS1 isoform 2 (UniProt O75363)	inactive: -0.093
